Measured values as given in PubChem BioAssay (EPA / NIEHS).
Where “and” joins values, the source holds several entries; their conditions need not be identical. Identical values can stand only once. This list was built around the results that the source calls inconclusive (neither active nor inactive); the mix of calls is not that of the screen. For part of these data: Potencies beside an inconclusive call are fits to weak or partial responses and may not hold up. Calls of active or inactive are those of the source. Rule for the calls: active = hit-call score of the fitted dose curve at least 0.9, where 1 is the maximum; inconclusive = response in the unintended direction; inactive = score below 0.9.

Amino acid sequences for entries named in this document (tags omitted). A change or cut given only in a name is not applied to a line headed by its entry.
UniProt Q14994: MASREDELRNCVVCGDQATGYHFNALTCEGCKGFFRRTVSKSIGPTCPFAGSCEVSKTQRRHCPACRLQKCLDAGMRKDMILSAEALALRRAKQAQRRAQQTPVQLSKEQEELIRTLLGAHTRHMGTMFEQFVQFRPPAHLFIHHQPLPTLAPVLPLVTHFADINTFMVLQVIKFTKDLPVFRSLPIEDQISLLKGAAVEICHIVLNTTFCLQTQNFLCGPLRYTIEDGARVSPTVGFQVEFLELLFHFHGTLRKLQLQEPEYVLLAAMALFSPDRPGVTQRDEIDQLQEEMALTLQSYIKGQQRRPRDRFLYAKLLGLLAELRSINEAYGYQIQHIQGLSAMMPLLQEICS
UniProt P07727: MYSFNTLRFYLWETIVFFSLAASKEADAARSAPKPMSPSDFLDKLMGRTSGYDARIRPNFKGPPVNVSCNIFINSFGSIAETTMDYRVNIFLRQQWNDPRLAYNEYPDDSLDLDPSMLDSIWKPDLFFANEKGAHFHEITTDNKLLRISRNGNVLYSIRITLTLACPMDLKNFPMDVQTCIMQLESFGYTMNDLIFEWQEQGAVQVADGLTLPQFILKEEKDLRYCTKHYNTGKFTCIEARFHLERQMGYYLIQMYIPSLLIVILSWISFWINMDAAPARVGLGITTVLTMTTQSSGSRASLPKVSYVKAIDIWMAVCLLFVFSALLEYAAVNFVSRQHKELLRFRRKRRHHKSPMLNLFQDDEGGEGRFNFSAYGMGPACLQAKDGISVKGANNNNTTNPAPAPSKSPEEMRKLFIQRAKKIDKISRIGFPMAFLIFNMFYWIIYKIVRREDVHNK
UniProt O97775: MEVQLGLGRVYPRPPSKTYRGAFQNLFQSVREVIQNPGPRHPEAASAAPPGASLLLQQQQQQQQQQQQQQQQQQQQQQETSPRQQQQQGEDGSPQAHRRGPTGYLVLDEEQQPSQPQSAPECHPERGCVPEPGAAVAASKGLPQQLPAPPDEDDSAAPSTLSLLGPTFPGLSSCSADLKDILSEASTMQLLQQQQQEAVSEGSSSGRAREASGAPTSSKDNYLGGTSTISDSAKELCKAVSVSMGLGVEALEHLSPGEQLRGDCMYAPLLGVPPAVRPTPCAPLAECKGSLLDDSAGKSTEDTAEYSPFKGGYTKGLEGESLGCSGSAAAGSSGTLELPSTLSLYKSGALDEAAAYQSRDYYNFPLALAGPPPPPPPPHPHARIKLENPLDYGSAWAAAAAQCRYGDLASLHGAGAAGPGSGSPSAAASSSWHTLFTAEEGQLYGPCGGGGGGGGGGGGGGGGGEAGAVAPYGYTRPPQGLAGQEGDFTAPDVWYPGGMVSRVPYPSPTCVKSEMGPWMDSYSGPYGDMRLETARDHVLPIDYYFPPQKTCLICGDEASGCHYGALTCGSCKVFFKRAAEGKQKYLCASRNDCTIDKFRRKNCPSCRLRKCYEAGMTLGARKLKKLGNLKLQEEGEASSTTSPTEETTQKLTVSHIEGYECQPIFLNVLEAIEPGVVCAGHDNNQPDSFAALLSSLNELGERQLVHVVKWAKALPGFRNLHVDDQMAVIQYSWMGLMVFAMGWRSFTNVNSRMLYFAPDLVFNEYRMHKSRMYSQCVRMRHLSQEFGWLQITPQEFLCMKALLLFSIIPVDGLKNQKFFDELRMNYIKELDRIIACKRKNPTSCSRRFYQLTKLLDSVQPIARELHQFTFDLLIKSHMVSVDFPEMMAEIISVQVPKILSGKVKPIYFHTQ
UniProt P03372, whole entry, looked up: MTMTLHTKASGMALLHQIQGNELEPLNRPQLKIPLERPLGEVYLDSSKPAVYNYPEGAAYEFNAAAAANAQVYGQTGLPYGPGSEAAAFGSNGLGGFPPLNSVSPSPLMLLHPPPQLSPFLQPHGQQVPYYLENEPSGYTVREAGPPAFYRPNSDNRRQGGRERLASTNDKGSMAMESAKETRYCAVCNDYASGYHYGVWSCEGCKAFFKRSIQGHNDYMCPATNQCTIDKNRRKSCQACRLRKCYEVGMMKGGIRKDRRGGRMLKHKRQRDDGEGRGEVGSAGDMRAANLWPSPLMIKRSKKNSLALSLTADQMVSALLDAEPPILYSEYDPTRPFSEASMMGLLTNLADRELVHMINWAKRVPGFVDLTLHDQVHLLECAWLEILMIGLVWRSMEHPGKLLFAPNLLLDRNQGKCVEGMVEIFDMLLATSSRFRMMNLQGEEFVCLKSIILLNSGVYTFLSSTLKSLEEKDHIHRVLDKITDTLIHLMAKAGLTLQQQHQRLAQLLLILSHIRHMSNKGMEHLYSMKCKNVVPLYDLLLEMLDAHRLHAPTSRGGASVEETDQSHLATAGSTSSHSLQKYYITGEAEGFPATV
UniProt Q96RI1: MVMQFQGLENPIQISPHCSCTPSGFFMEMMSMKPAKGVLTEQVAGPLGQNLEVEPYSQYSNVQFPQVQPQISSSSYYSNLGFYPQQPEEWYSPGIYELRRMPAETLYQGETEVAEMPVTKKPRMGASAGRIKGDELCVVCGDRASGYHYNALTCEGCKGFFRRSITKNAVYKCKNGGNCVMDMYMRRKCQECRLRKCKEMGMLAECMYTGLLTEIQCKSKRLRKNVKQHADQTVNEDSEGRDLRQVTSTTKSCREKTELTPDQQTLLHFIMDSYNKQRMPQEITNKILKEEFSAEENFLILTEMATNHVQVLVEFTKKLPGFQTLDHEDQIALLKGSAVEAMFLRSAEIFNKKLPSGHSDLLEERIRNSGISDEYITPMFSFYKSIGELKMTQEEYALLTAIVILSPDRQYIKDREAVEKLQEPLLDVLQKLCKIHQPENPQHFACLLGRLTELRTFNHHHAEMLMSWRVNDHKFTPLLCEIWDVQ
UniProt P49884, whole entry, looked up: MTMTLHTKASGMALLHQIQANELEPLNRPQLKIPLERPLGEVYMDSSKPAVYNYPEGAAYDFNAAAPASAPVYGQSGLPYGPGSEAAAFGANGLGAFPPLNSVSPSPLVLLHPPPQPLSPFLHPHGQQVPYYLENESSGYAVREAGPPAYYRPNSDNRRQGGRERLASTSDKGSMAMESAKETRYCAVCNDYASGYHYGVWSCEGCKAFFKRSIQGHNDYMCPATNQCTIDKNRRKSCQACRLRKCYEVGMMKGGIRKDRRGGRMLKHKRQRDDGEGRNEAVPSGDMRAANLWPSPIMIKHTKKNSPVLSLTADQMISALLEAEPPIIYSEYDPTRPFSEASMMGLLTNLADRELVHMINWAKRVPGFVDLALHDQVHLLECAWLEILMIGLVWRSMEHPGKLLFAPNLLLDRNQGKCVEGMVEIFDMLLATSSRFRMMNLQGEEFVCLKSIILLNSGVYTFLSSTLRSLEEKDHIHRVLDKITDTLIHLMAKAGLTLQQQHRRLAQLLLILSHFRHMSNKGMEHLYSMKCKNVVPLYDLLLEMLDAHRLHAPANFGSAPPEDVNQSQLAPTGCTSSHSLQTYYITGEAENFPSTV

Assays:
[1] = biological target: human Constitutive Androstane Receptor (CAR), NR1I3 (gene 9970) (UniProt Q14994); test: NVS_NR_hCAR_Antagonist: NovaScreen (NVS) Nuclear Receptor Binding Assay for human Constitutive Androstane Receptor Antagonism (CAR) (AID 2283344)
In short: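 Single 25 uM duplicate primary screen, with concentration-series follow-up on actives. Cell-free binding format run in antagonist mode, TR-FRET signal taken 1 h post-dose; activity is signal loss relative to DMSO.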

[2] = biological target: rat Glycine Receptor, Strychnine-sensitive (GlyRStrySens), Glra1 (gene 25674) (UniProt P07727); test: NVS_LGIC_rGlyRStrySens: NovaScreen (NVS) Ligand-Gated Ion Channel Assay for rat Glycine Receptor, Strychnine-sensitive (GlyRStrySens) (AID 2283341)
In short: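 Radioligand displacement on rat spinal cord membranes, 1 hr, filter scintillation read-out. Single-concentration duplicate screen at 25 uM; chemicals meeting threshold (e.g., 30% inhibition) rerun in concentration-response up to 50 uM. Loss of binding fitted versus DMSO.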

NCBI gene 100848466 = test: NVS_NR_bPR: NovaScreen (NVS) Nuclear Receptor Binding Assay for bovine Progextron Receptor (PR) (AID 2283343);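 for AC50: actives lower bound radioligand signal below DMSO meaning displacement of the label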
In short: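 Steps: bovine uterine membranes were dosed with chemical alongside radioligand, incubated 18 hours, then radiodetected by scintillation counting. Initial testing used 25 uM in duplicate; confirmed actives were rerun as concentration series.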

[3] = biological target: chimpanzee Androgen Receptor (AR), AR (gene 747460) (UniProt O97775); test: NVS_NR_cAR: NovaScreen (NVS) Nuclear Receptor Binding Assay for chimpanzee Androgen Receptor (AR) (AID 2283346);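 note: radioligand displacement from AR measured by scintillation counting in a cell-free assay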
In short: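 Cell-free radioligand displacement using receptor protein extracted from Sf9/Sf21 cells; bound radioligand measured by scintillation counting 72 hours after chemical dosing. Loss of signal versus DMSO baseline indicates binding; primary screen single-concentration in duplicate at 25 uM, actives followed in concentration series.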

[4] = biological target: Estrogen receptor (Homo sapiens) (UniProt P03372); test: NVS_NR_hER: NovaScreen (NVS) Nuclear Receptor Binding Assay for human Estrogen Receptor (ER) (AID 2283348)
In short: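 Radiodetection of ligand displacement in a lysate-based, cell-free format using MCF7 extracts, read at 18 hours. Duplicate 25 uM primary testing, then concentration series for actives.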

[5] = biological target: Bile acid receptor (Homo sapiens) (UniProt Q96RI1); test: NVS_NR_hFXR_Antagonist: NovaScreen (NVS) Nuclear Receptor Binding Assay for human Farnesoid X Receptor Antagonism (FXR) (AID 2283350)
In short: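 Antagonist-format time-resolved FRET binding assay with extracted human receptor protein, read 1 hour after compound addition. Compounds first screened at 25 uM in duplicate, then actives tested in concentration series, with loss of signal relative to DMSO.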

[6] = biological target: bovine Estrogen Receptor (ER), ESR1 (gene 407238) (UniProt P49884); test: NVS_NR_bER: NovaScreen (NVS) Nuclear Receptor Binding Assay for bovine Estrogen Receptor (ER) (AID 2283345);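 note: actives lower the bound radioligand count which means they displace the ER ligand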
In short: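 Cell-free radioligand binding with receptor from bovine uterine membranes, read by scintillation counting 18 h after dosing. Loss of specific binding was scored against DMSO; primary screen at 25 uM in duplicate, actives then run as concentration series.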

[7] = biological target: Bile acid receptor (Homo sapiens) (UniProt Q96RI1); test: NVS_NR_hFXR_Agonist: NovaScreen (NVS) Nuclear Receptor Binding Assay for human Farnesoid X Receptor Agonism (FXR) (AID 2283347)
In short: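 Agonist-mode FXR assay read by time-resolved FRET 1 h after compound addition, using isolated human receptor protein without cells. Duplicate 25 uM single-point primary screen, concentration series for confirmed actives; DMSO as baseline.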

[8] = tested on: guinea pig Histamine Receptor (H2), gene 100729734; test: NVS_GPCR_gH2: NovaScreen (NVS) G Protein-Coupled Receptor Assay for guinea pig Histamine Receptor (H2) (AID 2283342)
In short: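 Guinea pig striatal membrane preparation with specific radioligand; bound counts measured by filtration and scintillation 1 h post-dosing, DMSO as baseline. Chemicals passing a 25 uM duplicate screen were titrated to a 50 uM maximum.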

[9] = biological target: rat Glutamate, MK-801 Agonist Site (GluNMDA_MK801), Grin1 (gene 24408) (UniProt P35439); test: NVS_LGIC_rGluNMDA_MK801_Agonist: NovaScreen (NVS) Ligand-Gated Ion Channel Assay for rat Glutamate, MK-801 Agonist Site (GluNMDA_MK801) (AID 2283340)
In short: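 Rat forebrain membrane preparation; MK-801-site radioligand binding read by filtration and scintillation after 1.5 h. Single-point 25 uM duplicate screen, followed by singleton concentration series to 50 uM max; DMSO baseline.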

**Q.** `Cc1ccc(N)cc1O` was tested. Which AC50 [1] did it give?
**A.** The AC50 was inconclusive: 0.0759 µM.

**Q.** With `CCCCc1ccc2c(n1)[C@@H](c1ccc(OC)cc1C[C@H](C)C(=O)O)[C@H](C(=O)O)[C@H]2c1ccc2c(c1)OCO2` as the compound, how does the AC50 [2] read?
**A.** Its AC50 is inconclusive: 0.339 µM.

**Q.** How did the AC50 (NCBI gene 100848466) turn out when `Oc1cc2ccccc2c2ccccc12` was run?
**A.** Its AC50 is active: 18 µM.

**Q.** What about the AC50 [3] of the same compound?
**A.** The AC50 was active: 10.1 µM.

**Q.** `O=C(O)C1(C(=O)Nc2ccc(Cl)cc2Cl)CC1` was tested. Which AC50 (NCBI gene 100848466) did it give?
**A.** Its AC50 is inconclusive: 20.6 µM.

**Q.** How did the AC50 (NCBI gene 100848466) turn out when `CC[C@H](c1ccc(O)cc1)[C@@H](CC)c1ccc(O)cc1` was run?
**A.** Its AC50 is inconclusive: 0.00229 µM.

**Q.** And the AC50 [1]?
**A.** Its AC50 is active: 0.00229 µM.

**Q.** And the AC50 [4]?
**A.** The AC50 was active: 0.0334 nM and active: 2.46 nM and active: 2.68 nM.

**Q.** What about the AC50 [5] of the same compound?
**A.** Its AC50 is active: 8.83 µM.

**Q.** For `CCCCCCCCOC(=O)c1cc(O)c(O)c(O)c1`, which AC50 [2] is on record?
**A.** The AC50 was inconclusive: 22.7 µM.

**Q.** What about the outcome (NCBI gene 100848466) of the same compound?
**A.** Its outcome is “inactive”.

**Q.** And the AC50 [6]?
**A.** Its AC50 is active: 36.7 µM.

**Q.** What about the outcome [7] of the same compound?
**A.** Its outcome is “inactive”.

**Q.** `CCN(Cc1cccnc1)C(=O)c1cccc(Cl)c1[C@]1(C)C(=O)N(Cc2ccc(OC)cc2OC)c2ccc(Cl)cc21` was tested. Which AC50 [8] did it give?
**A.** The AC50 was active: 1.12 µM.

**Q.** What about the AC50 (NCBI gene 100848466) of the same compound?
**A.** Its AC50 is active: 2.77 µM.

**Q.** What about the AC50 [7] of the same compound?
**A.** Its AC50 is active: 15.1 µM.

**Q.** Which AC50 (NCBI gene 100848466) does the source give for `C[C@]12CC[C@@H]3c4ccc(O)cc4CC[C@H]3[C@@H]1CC[C@@H]2O` here?
**A.** Its AC50 is active: 0.00898 µM.

**Q.** How did the AC50 [1] turn out when `Cc1ccccc1Cl` was run?
**A.** The AC50 was inconclusive: 25 µM.

**Q.** For `CCN(CC)C(=O)c1cc(S(=O)(=O)Cc2ccccc2)c(N2CCC(c3ccccc3)CC2)cc1N(CC)CCN(C)C`, which AC50 [9] is on record?
**A.** The AC50 was inconclusive: 2.54 µM.

**Q.** For `CC(C)(C)c1cc(C(C)(C)C)c(O)c(C(C)(C)C)c1`, which AC50 [2] is on record?
**A.** The AC50 was inconclusive: 0.446 µM.

**Q.** Which results are given for `Cc1nccn1-c1ccc(Sc2cccc(C3(C(N)=O)CCOCC3)c2)cc1`?
**A.** AC50 (NCBI gene 100848466): active: 7.1 µM; AC50 [6]: inconclusive: 25 µM; AC50 [4]: inconclusive: 9.85 µM

**Q.** `ClC1=C(Cl)C(Cl)(Cl)C(Cl)=C1Cl` was tested. Which outcome [9] did it give?
**A.** Its outcome is “inactive”.

**Q.** And the outcome [4]?
**A.** The outcome was “inactive”.

**Q.** How did the AC50 [1] turn out when `O=C(O)c1cccc(Oc2ccccc2)c1` was run?
**A.** The AC50 was inconclusive: 44.9 µM.

**Q.** `CN(Cc1cnc2nc(N)nc(N)c2n1)c1ccc(C(=O)N[C@@H](CCC(=O)O)C(=O)O)cc1` was tested. Which AC50 (NCBI gene 100848466) did it give?
**A.** Its AC50 is inconclusive: 25 µM.

**Q.** What about the AC50 [6] of the same compound?
**A.** The AC50 was inconclusive: 25 µM.

**Q.** And the AC50 [3]?
**A.** Its AC50 is inconclusive: 25 µM.

**Q.** And the AC50 [4]?
**A.** Its AC50 is inconclusive: 0.117 µM.

**Q.** With `O=C(O)c1ccccc1C(c1ccc(O)cc1)c1ccc(O)cc1` as the compound, how does the AC50 [1] read?
**A.** Its AC50 is active: 0.427 µM.

**Q.** `O=c1[nH]cnc2c1ncn2[C@H]1CC[C@@H](CO)O1` was tested. Which outcome [1] did it give?
**A.** The outcome was “inactive”.

**Q.** With `c1ccc(C(O[C@@H]2CCCN(CCc3ccc4c(c3)OCO4)C2)c2ccccc2)cc1` as the compound, how does the AC50 [8] read?
**A.** Its AC50 is active: 0.337 µM.

**Q.** For `O=C(O)Cc1cc(I)c(Oc2cc(I)c(O)c(I)c2)c(I)c1`, which AC50 [8] is on record?
**A.** Its AC50 is inconclusive: 15.9 µM.

**Q.** What about the outcome [6] of the same compound?
**A.** Its outcome is “inactive”.

**Q.** How did the outcome (NCBI gene 100848466) turn out when `CC1(C)C(C=C(Cl)Cl)C1C(=O)OCc1cccc(Oc2ccccc2)c1` (stereo unspecified) was run?
**A.** Its outcome is “inactive”.

**Q.** And the outcome [6]?
**A.** The outcome was “inactive”.

**Q.** How did the AC50 (NCBI gene 100848466) turn out when `CC[C@H](C)[C@@H](C(=O)O)n1sc2ccccc2c1=O` was run?
**A.** Its AC50 is inconclusive: 0.00229 µM.

**Q.** `CC1(C)NC(=O)N(c2ccc([N+](=O)[O-])c(C(F)(F)F)c2)C1=O` was tested. Which AC50 (NCBI gene 100848466) did it give?
**A.** The AC50 was inconclusive: 0.00593 µM.

**Q.** `CC(C)OC(=O)C(C)(C)Oc1ccc(C(=O)c2ccc(Cl)cc2)cc1` was tested. Which AC50 [7] did it give?
**A.** The AC50 was active: 25 µM.

**Q.** And the outcome [4]?
**A.** The outcome was “inactive”.

**Q.** Which outcome [5] does the source give for `c1ccc2cc3c(ccc4ccccc43)cc2c1` here?
**A.** The outcome was “inactive”.

**Q.** Which results are given for `CCOC(=O)O[C@H](C)OC(=O)c1ccc2c(c1)cc(C(=O)NC1CCN(C(C)C)CC1)n2Cc1cc(-c2ccc(Cl)s2)on1`?
**A.** AC50 [6]: inconclusive: 44 µM; outcome [4]: inactive

**Q.** With `c1ccc2c(c1)-c1cccc3c1c-2cc1ccccc13` as the compound, how does the AC50 [6] read?
**A.** The AC50 was inconclusive: 25 µM.

**Q.** What about the AC50 [4] of the same compound?
**A.** The AC50 was inconclusive: 25 µM.

**Q.** For `O=C(O)CCSCCC(=O)O`, which outcome [6] is on record?
**A.** Its outcome is “inactive”.

**Q.** What about the outcome [4] of the same compound?
**A.** The outcome was “inactive”.

**Q.** With `O=C(c1ccccc1)c1ccc(O)cc1O` as the compound, how does the AC50 [6] read?
**A.** The AC50 was active: 8.41 µM.

**Q.** And the AC50 [4]?
**A.** The AC50 was inconclusive: 0.114 µM.

**Q.** For `CCC(C)(C)C1CCC(=O)CC1`, which AC50 [6] is on record?
**A.** The AC50 was active: 4.52 µM.

**Q.** What about the AC50 [4] of the same compound?
**A.** Its AC50 is active: 0.983 µM.

**Q.** `OC1CCCCCCCCCCC1` was tested. Which outcome [6] did it give?
**A.** The outcome was “inactive”.

**Q.** And the outcome [3]?
**A.** Its outcome is “inactive”.

**Q.** And the AC50 [4]?
**A.** The AC50 was inconclusive: 25 µM.

**Q.** How did the outcome [6] turn out when `Cc1ccc(-c2cc(C(F)(F)F)nn2-c2ccc(S(N)(=O)=O)cc2)cc1` was run?
**A.** The outcome was “inactive”.

**Q.** And the outcome [4]?
**A.** The outcome was “inactive”.

**Q.** `COCCOCCC[Si](C)(O[Si](C)(C)C)O[Si](C)(C)C` was tested. Which AC50 [6] did it give?
**A.** The AC50 was inconclusive: 25 µM.

**Q.** What about the AC50 [4] of the same compound?
**A.** The AC50 was inconclusive: 43.9 µM.

**Q.** Which results are given for `Cc1nn(C)c(Oc2ccccc2)c1C=NOCc1ccc(C(=O)OC(C)(C)C)cc1`?
**A.** outcome [6]: inactive; outcome [7]: inactive; outcome [4]: inactive

**Q.** Which AC50 [6] does the source give for `O=C1C=CC(=O)N1c1ccccc1` here?
**A.** Its AC50 is inconclusive: 25 µM.

**Q.** And the AC50 [4]?
**A.** Its AC50 is inconclusive: 10.1 µM.

**Q.** Which results are given for `O=S(=O)(O)c1ccccc1C=Cc1ccc(-c2ccc(C=Cc3ccccc3S(=O)(=O)O)cc2)cc1`?
**A.** outcome [6]: inactive; AC50 [7]: inconclusive: 10.5 µM
